One substance from doi:10.1101/2020.03.27.011528 can be followed below.

Protein sequences, listed by entry. Tags and fused reporters are not part of them. Residues count along the entry.
UniProt P38646, residues 47-679: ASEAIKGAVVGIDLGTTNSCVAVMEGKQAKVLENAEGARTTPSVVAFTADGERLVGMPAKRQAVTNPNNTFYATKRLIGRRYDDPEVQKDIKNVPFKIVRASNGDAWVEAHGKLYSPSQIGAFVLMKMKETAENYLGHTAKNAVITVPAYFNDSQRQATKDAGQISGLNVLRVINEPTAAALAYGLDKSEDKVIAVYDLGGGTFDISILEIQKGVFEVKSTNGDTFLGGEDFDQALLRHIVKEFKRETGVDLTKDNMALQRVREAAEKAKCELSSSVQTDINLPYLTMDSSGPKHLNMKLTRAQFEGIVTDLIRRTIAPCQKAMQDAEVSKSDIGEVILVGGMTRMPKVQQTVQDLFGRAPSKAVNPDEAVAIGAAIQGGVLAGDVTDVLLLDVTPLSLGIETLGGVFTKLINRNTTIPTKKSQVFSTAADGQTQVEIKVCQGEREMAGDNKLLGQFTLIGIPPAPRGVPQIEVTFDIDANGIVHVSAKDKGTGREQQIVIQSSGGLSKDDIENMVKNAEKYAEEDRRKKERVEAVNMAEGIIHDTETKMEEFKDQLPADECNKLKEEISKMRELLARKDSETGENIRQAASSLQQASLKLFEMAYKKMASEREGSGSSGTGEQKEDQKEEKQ
UniProt P21796: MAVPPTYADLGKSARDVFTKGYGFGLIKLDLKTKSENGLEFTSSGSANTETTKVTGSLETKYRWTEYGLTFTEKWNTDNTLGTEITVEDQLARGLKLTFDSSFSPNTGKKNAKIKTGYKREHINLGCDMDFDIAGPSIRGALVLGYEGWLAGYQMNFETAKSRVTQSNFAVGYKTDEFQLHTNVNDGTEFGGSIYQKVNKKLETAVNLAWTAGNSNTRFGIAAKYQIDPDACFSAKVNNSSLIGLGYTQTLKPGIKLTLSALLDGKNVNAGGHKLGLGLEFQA

No constants are given. Whether binding was seen depends on the method and setting. Binding seen in cells or lysates may run through a third protein. Some binding calls cover weakened binding; strength is not graded here.

The test concerns the target glucose regulated protein 75 (GRP75) (human (endogenous in SH-SY5Y)) (UniProt P38646). The test can be described thus: proximity ligation.

For the substance “voltage-dependent anionic channel 1 (VDAC1) (from UniProt P21796 1-283)”, the binding result was “binds”.
